PubChem BioAssay AID743454 | Peter MacCallum Cancer Centre | 2014
Assay: 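Search for knock-downs that restore vorinostat killing in resistant colon cancer cells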 (primary screen). System: human HCT116-VR colon cancer cells, selected for vorinostat resistance. Reagent: siRNA pool against human genes, 40 nM siRNA pool. Duration: vorinostat for 24 h, read-out about 72 h after transfection. Conditions: vorinostat at 2.5 µM final. Measurement: 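Two measures, CellTiter-Fluor viability and luminescent caspase 3/7 activity, each as fold change against same-plate mock wells, mean of duplicates, then screen-wide robust z-score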. Reading the numbers: viability robust z-score: higher = more viable cells than screen typical; caspase robust z-score: higher = more caspase 3/7 activity than screen typical. Active means: 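Hits are knock-downs in viability class RV1/RV2 or caspase class CA1/CA2, excluding ones that killed cells in the no-drug cell-count arm; hits then retested with single siRNAs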.
The deposit covers about 18,000 reagents; this is an unselected part. 450 of them (2.5%) count as active. 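Single biological run; no consistent viability z cut-off exists, so the class columns, not z-scores, define the calls.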

| gene knocked down | viability hit class | caspase hit class | viability robust z-score | caspase robust z-score | activity call |
| --- | --- | --- | --- | --- | --- |
| RCCD1 (GeneID 91433) | no change | no change | 0.31 | -0.28 | inactive |
| RPS6KL1 (GeneID 83694) | no change | no change | -0.91 | 1.2 | inactive |
| ZC3H14 (GeneID 79882) | no change | no change | -0.43 | 0.24 | inactive |
| OR6C65 (GeneID 403282) | no change | no change | -0.94 | 1.57 | inactive |
| KIF1A (GeneID 547) | no change | no change | -0.03 | 0.08 | inactive |
| MARCO (GeneID 8685) | no change | no change | -1.28 | 0.1 | inactive |
| SPOUT1 (GeneID 51490) | no change | no change | 2.25 | -0.56 | inactive |
| UBAP2L (GeneID 9898) | no change | no change | -1.19 | 3.79 | inactive |
| RTRAF (GeneID 51637) | no change | no change | 0.18 | 0.34 | inactive |
| ERBB3 (GeneID 2065) | no change | no change | -0.51 | 1.77 | inactive |
| MYL6 (GeneID 4637) | no change | no change | -0.36 | -0.26 | inactive |
| SLC9A9 (GeneID 285195) | no change | no change | -0.04 | -0.62 | inactive |
| PI4KB (GeneID 5298) | no change | no change | -0.47 | -1.31 | inactive |
| TINAGL1 (GeneID 64129) | no change | no change | -0.4 | 0.48 | inactive |
| TFAM (GeneID 7019) | no change | no change | 0.68 | 0.42 | inactive |
| ZFR2 (GeneID 23217) | no change | no change | 1.05 | -0.42 | inactive |
| GRN (GeneID 2896) | no change | no change | -0.37 | -0.12 | inactive |
| SDF2 (GeneID 6388) | no change | no change | -0.27 | -0.12 | inactive |
| FOXM1 (GeneID 2305) | no change | no change | 0.62 | 0.01 | inactive |
| XKR3 (GeneID 150165) | no change | no change | -1.11 | -0.72 | inactive |
| OR52B2 (GeneID 255725) | no change | no change | -0.78 | -0.44 | inactive |
| ZNF341 (GeneID 84905) | no change | no change | 0.92 | -0.53 | inactive |
| FASTKD4 (GeneID 9238) | no change | no change | 0.81 | 0.75 | inactive |
| C19orf12 (GeneID 83636) | no change | no change | -1.4 | 2.12 | inactive |
| C1QTNF6 (GeneID 114904) | no change | no change | -2.86 | 1.4 | inactive |
| PRPF39 (GeneID 55015) | no change | no change | -1.3 | 0.47 | inactive |
| ARF3 (GeneID 377) | no change | no change | -0.15 | 0.56 | inactive |
| DYNC1I1 (GeneID 1780) | no change | no change | 0.88 | 0.56 | inactive |
| PLEKHB2 (GeneID 55041) | no change | no change | 0.88 | -0.76 | inactive |
| CHST6 (GeneID 4166) | no change | no change | 1.06 | -0.64 | inactive |
| PSG7 (GeneID 5676) | no change | no change | 0.86 | 0.4 | inactive |
| IHH (GeneID 3549) | no change | no change | 0.96 | -0.68 | inactive |
| TNPO1 (GeneID 3842) | no change | no change | -1.38 | 2.73 | inactive |
| H2AC16 (GeneID 8332) | no change | no change | -1.16 | -1.02 | inactive |

Next part (7 carried over from the part before).
| gene knocked down | viability hit class | caspase hit class | viability robust z-score | caspase robust z-score | activity call |
| --- | --- | --- | --- | --- | --- |
| DYNC1I1 (GeneID 1780) | no change | no change | 0.88 | 0.56 | inactive |
| PLEKHB2 (GeneID 55041) | no change | no change | 0.88 | -0.76 | inactive |
| CHST6 (GeneID 4166) | no change | no change | 1.06 | -0.64 | inactive |
| PSG7 (GeneID 5676) | no change | no change | 0.86 | 0.4 | inactive |
| IHH (GeneID 3549) | no change | no change | 0.96 | -0.68 | inactive |
| TNPO1 (GeneID 3842) | no change | no change | -1.38 | 2.73 | inactive |
| H2AC16 (GeneID 8332) | no change | no change | -1.16 | -1.02 | inactive |
| C19orf18 (GeneID 147685) | no change | no change | 0.52 | 1.06 | inactive |
| QRFP (GeneID 347148) | no change | no change | -0.37 | 1.48 | inactive |
| MCCC2 (GeneID 64087) | no change | no change | 0.41 | -0.76 | inactive |
| GPR161 (GeneID 23432) | no change | no change | -1.2 | 0.07 | inactive |
| RTL8C (GeneID 8933) | no change | no change | 0.32 | 0.84 | inactive |
| P3H4 (GeneID 10609) | no change | no change | -1.6 | 0.56 | inactive |
| CMTM7 (GeneID 112616) | no change | no change | 0.16 | -0.18 | inactive |
| TNFRSF11B (GeneID 4982) | no change | no change | -1.29 | 2.85 | inactive |
| TRIM39 (GeneID 56658) | no change | no change | -0.02 | 0.4 | inactive |
| FIS1 (GeneID 51024) | no change | no change | 0.22 | -0.9 | inactive |
| CCNA2 (GeneID 890) | no change | no change | -1.52 | 3.71 | inactive |
| SNX13 (GeneID 23161) | no change | no change | 0.25 | -0.86 | inactive |
| TOPORS (GeneID 10210) | no change | no change | 0.08 | 0.18 | inactive |
| SSNA1 (GeneID 8636) | no change | no change | -0.58 | -0.66 | inactive |
| MYB (GeneID 4602) | no change | no change | 0.59 | -0.76 | inactive |
| FKRP (GeneID 79147) | no change | no change | 0.76 | 2.84 | inactive |
| TMEM184B (GeneID 25829) | no change | no change | 1.01 | -0.64 | inactive |
| FBXO31 (GeneID 79791) | no change | no change | 0.14 | -0.97 | inactive |
| GLRX (GeneID 2745) | no change | no change | 0.74 | 0.24 | inactive |
| OR2K2 (GeneID 26248) | no change | no change | 0.53 | 0.36 | inactive |
| RNF2 (GeneID 6045) | no change | no change | -0.1 | 0.04 | inactive |
| PHF21A (GeneID 51317) | no change | no change | 0.63 | -0.94 | inactive |
| PRAC1 (GeneID 84366) | no change | no change | 1.23 | -0.75 | inactive |
